Test results as given in paper PMC5309860 (2017).
Results are given in words; binding and its absence hold for the method and conditions named. Binding seen in cells or lysates may run through a third protein. Some results given as binding are weak or reduced against the parent protein; the word gives no strength. For some of these results: Sequences can lack the tags named with a protein.

Amino acid sequences for entries named in this document (tags omitted).
UniProt P25095: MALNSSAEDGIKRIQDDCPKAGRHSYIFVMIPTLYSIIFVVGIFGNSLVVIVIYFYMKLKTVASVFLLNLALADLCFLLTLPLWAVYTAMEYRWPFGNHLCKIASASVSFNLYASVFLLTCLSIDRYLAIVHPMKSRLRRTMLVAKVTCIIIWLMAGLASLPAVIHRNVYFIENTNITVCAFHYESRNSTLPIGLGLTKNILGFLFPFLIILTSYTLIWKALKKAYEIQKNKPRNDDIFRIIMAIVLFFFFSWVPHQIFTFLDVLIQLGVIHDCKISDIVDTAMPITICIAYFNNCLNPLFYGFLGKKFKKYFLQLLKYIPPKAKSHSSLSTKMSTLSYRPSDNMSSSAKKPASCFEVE
UniProt P49407: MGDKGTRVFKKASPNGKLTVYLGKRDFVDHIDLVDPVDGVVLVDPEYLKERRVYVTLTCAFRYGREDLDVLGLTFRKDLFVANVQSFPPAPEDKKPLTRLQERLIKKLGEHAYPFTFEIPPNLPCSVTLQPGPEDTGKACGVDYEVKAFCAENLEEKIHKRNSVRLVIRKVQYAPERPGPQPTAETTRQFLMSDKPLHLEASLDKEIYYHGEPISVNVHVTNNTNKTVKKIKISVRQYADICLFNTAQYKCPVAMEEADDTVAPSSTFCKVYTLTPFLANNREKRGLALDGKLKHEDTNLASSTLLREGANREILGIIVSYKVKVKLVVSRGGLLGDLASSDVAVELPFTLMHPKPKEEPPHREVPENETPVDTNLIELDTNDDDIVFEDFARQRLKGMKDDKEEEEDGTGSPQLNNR

How the values were obtained:
TRPC3-GFP (wild type) = target: T1, TRPC3-GFP (wild type) (UniProt Q13507); assay: co-IP; HEK293 cells co-transfected with Flag-AT1R-cherry, TRPC3-GFP (WT/truncations) and HA-β-arrestin-1 (WT/truncations/mutants); starved 12 h, stimulated 1 min with AngII (100 nM), TRV120055 (30 nM) or TRV120027 (100 nM); lysates precipitated with antibody-conjugated beads overnight at 4 °C, western …
T1 sequence: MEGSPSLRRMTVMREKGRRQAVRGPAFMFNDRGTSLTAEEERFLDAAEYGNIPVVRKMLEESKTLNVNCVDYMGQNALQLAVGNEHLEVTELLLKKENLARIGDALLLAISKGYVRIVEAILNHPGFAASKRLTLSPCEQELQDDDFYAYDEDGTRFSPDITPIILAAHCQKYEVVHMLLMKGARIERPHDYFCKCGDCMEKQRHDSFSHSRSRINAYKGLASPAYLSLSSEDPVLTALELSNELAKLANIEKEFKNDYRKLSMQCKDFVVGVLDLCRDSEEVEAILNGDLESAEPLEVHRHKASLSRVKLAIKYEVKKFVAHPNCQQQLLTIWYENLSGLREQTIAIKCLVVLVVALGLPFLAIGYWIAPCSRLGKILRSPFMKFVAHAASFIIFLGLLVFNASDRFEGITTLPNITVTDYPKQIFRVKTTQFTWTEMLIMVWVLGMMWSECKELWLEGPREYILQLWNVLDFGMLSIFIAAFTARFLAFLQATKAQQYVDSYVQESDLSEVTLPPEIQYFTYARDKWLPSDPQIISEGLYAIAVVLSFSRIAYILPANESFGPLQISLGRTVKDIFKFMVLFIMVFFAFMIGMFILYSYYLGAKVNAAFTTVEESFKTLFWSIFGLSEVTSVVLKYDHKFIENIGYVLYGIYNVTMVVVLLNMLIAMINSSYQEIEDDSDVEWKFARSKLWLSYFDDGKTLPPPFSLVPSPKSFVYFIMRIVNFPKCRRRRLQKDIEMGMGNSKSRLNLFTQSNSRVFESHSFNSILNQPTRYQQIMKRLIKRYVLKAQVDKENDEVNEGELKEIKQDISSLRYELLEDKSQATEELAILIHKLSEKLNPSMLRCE

TRPC3-GFP 73–848 = target: T2, TRPC3-GFP 73–848 (UniProt Q13507); assay: as above
T2 sequence: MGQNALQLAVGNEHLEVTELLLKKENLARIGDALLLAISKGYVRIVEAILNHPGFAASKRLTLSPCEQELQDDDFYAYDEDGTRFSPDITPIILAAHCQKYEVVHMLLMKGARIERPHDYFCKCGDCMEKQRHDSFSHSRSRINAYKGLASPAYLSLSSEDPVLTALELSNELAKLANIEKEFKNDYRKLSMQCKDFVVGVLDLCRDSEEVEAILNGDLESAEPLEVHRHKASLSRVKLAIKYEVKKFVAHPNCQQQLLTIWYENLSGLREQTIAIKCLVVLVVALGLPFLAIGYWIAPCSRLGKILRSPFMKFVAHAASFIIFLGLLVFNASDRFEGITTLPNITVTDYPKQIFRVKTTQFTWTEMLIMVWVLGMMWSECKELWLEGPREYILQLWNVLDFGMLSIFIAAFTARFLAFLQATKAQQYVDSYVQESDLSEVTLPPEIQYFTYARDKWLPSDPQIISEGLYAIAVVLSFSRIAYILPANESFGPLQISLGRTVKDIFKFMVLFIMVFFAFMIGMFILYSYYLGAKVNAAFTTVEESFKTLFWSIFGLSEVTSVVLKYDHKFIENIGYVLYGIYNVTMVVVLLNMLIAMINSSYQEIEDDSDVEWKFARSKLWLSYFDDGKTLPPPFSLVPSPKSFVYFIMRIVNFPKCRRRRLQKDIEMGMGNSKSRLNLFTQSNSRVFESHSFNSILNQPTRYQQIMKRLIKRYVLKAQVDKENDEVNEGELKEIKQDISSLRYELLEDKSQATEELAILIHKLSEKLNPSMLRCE

TRPC3-GFP 178–848 = target: T3, TRPC3-GFP 178–848 (UniProt Q13507); assay: as above
T3 sequence: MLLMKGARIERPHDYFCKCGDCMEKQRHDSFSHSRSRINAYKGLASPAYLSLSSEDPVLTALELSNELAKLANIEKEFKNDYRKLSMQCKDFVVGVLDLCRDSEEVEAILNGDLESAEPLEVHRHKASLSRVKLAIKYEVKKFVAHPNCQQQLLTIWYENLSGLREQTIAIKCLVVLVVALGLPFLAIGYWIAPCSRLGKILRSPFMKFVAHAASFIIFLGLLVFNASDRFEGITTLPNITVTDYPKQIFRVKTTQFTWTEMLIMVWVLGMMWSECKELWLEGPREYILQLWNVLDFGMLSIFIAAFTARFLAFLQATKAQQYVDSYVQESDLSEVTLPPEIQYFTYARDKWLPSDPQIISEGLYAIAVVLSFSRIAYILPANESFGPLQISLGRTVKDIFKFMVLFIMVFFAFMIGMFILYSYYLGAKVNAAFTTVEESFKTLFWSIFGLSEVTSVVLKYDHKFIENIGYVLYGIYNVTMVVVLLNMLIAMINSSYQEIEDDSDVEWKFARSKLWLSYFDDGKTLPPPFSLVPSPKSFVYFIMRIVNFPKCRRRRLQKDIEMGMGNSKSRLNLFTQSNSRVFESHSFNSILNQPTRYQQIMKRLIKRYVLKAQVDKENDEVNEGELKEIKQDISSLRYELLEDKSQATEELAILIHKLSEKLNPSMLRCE

Flag-AT1R-cherry = Flag-AT1R-cherry (UniProt P25095); assay: co-IP; sequential: HEK293 cells with Flag-AT1R-cherry, HA-β-arrestin-1 and TRPC3-GFP, TRV120027 (100 nM) or vehicle 1 min; plasma membrane fractions; anti-Flag M2 agarose, elution with 3*Flag peptide, then anti-HA or anti-GFP beads; western blot

Measured: binding

HA-β-arrestin-1 (wild type) (from UniProt P49407 1-418)
binds: all assays above
